The assay has as its target MC4R of the RAMP3 negative control (not stated (zebrafish or mouse cDNA cloned)) (UniProt P56450). Nature of the assay: co-IP; HEK293T co-transfected 1:1, lysed 24-48 h later in IP cell lysis buffer; anti-HA immunoprecipitation overnight at 4 °C, Protein A+G agarose; blots with anti-HA and anti-Flag.

Protein sequences, listed by entry. Tags and fused reporters are not part of them.
UniProt P56450: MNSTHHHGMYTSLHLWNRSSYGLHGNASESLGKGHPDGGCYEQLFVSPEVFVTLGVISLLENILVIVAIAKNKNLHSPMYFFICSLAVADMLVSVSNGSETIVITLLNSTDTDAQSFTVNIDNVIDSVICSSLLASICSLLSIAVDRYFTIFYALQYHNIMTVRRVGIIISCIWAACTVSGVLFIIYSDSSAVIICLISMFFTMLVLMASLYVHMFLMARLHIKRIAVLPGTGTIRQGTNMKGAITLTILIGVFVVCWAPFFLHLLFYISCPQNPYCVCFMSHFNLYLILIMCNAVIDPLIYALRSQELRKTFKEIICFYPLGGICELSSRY

These are yes or no findings as the source states them, for the method shown. In cells and extracts the contact can be indirect.

B1: mouse receptor activity modifying protein 3 (protein, UniProt Q9WUP1 23-147)
chain: QVCGCNETGMLERLPRCGKAFADMMQKVAVWKWCNLSEFIVYYESFTNCTEMETNIMGCYWPNPLAQSFITGIHRQFFSNCTVDRTHWEDPPDEVLIPLIAVPVVLTVAMAGLVVWRSKHTDRLL
For the molecule B1, the binding result is recorded as “no binding”.
